Data taken from paper PMC5341999.
Results are given in words; binding and its absence hold for the method and conditions named. Binding seen in cells or lysates may run through a third protein. Some binding calls cover weakened binding; strength is not graded here.

The chains behind the UniProt entries cited, without tags or fusion partners. Where a name states a change or a piece, a line headed by the entry shows the natural chain unless it says otherwise.
UniProt P49841: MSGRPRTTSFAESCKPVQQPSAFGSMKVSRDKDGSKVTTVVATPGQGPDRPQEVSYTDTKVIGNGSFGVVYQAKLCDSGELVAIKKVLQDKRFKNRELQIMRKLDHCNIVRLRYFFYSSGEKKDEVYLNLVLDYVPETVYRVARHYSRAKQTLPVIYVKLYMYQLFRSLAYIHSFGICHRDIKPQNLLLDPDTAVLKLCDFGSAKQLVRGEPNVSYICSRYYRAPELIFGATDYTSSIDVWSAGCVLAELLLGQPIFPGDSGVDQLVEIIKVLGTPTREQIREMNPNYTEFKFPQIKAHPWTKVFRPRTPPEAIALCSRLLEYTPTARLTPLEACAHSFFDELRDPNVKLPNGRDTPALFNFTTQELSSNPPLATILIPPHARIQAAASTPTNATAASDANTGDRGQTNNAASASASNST
UniProt P24385: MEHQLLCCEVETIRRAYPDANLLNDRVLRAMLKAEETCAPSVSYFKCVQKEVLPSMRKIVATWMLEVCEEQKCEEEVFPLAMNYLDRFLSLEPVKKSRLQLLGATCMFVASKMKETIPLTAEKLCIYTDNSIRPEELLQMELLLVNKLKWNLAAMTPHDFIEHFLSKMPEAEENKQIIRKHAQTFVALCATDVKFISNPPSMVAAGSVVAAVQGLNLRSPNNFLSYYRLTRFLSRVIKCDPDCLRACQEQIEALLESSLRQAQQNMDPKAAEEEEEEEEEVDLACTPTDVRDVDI

What was measured:
[1] = target: glycogen synthase kinase 3 beta (GSK3B) (human (endogenous in JEKO-1)) (UniProt P49841); assay: co-IP; reverse co-IP: JEKO-1 cell lines expressing EV, WT or mutant CCND1-HA immunoprecipitated with GSK3B antibody and immunoblotted
[2] = target: wild type CCND1-HA (cyclin D1, carboxy-terminus HA-tagged) (human) (UniProt P24385); assay: co-IP; JEKO-1 lysates (25 mM Tris-HCl pH 7.4, 150 mM NaCl, 1% NP-40, 1 mM EDTA, 5% glycerol) precleared with IgG1 isotype control and protein A agarose; about 1.5 mg lysate with HA antibody-conjugated agarose beads overnight at 4°C; washed 4 times in PBS with 0.5% NP40; immunoblot
[3] = target: C47S CCND1-HA (human) (UniProt P24385); assay: as above
[4] = target: Y44D CCND1-HA (human) (UniProt P24385); assay: as above

| Substance | binding [1] | binding [2] | binding [3] | binding [4] |
| --- | --- | --- | --- | --- |
| Y44D CCND1-HA (from UniProt P24385 1-295) | binds |  |  |  |
| wild type CCND1-HA (cyclin D1, carboxy-terminus HA-tagged) (from UniProt P24385 1-295) | binds |  |  |  |
| C47S CCND1-HA (from UniProt P24385 1-295) | binds |  |  |  |
| T286A CCND1-HA (from UniProt P24385 1-295) | binds |  |  |  |
| glycogen synthase kinase 3 beta (GSK3B) (from UniProt P49841 1-420) (enzyme) |  | binds | binds | binds |
